The list is a part of this screen's results and no random one: it is rich in T/C values a quarter to a half above the control, in often repeated tests (any T/C) and in doses without a T/C. Further doses and runs are listed elsewhere. T/C gives the treated animals as a percentage of the vehicle group. Some doses have a count of surviving animals in place of a T/C: the source files T/C as zero there, which appears to mark a toxic dose or a test without result, not a measured value. Some doses without a T/C left all or most animals alive at the check, yet need not have been tolerated: survival well below the control is almost never listed, so the zero probably covers shortened survival too. Survivors were counted at the toxicity check, usually on the fifth day, unless a day is given; later deaths do not show. Schedule codes are those of the source, read here as Q, the interval in days (D) or hours (H), X, the number of doses. Marks such as (2×) say how often a value occurs here. Some doses were run more than once; the results are listed from low to high. Where survival is the endpoint, the PubChem record calls one and a half times the control and up active, and a quarter to a half above the control has no call in these data; cut-offs in other NCI protocols can differ.

For this test, the system named is P388 leukemia ip, CD2F1 mice, survival T/C. Put plainly: NCI In Vivo Anticancer Drug Screen. Data for tumor model P388 Leukemia (intraperitoneal) in CD2F1 (CDF1) mice. To be noted: T/C endpoint: median survival time, higher T/C = longer survival.
[1] abbreviates: dose: 200.0 mg/kg/injection, schedule: Q01DX005 (ip), vehicle: saline with Tween-80.
[2] abbreviates: dose: 12.5 mg/kg/injection, schedule: Q01DX009 (ip), vehicle: water.
[3] abbreviates: dose: 0.78 mg/kg/injection, schedule: Q01DX009 (ip), vehicle: water.
Where [4] appears, read: dose: 1.56 mg/kg/injection, schedule: Q01DX009 (ip), vehicle: water.
The mark [5] stands for this setting: dose: 50.0 mg/kg/injection, schedule: Q01DX009 (ip), vehicle: saline with Tween-80.
Where [6] appears, read: dose: 100.0 mg/kg/injection, schedule: Q01DX009 (ip), vehicle: saline with Tween-80.
The mark [7] stands for this setting: dose: 10.0 mg/kg/injection, schedule: Q01DX009 (ip), vehicle: saline + alcohol.
The mark [8] stands for this setting: dose: 100.0 mg/kg/injection, schedule: Q01DX005 (ip), vehicle: saline with Tween-80.

For `COc1ccc2c(Cl)ccnc2c1OC`, the survivor count under setting [1] is recorded as 0 of 6.

Take `O=NNc1ccc(Cl)cn1`: the T/C runs as follows: (dose: 3.12 mg/kg/injection, schedule: Q01DX009 (ip), vehicle: water) 128 % of control; (dose: 6.25 mg/kg/injection, schedule: Q01DX009 (ip), vehicle: water) 142 and 144 % of control; under setting [2], 144 % of control. Further, the survivor count (dose: 25.0 mg/kg/injection, schedule: Q01DX009 (ip), vehicle: water) is 2 of 6 and 6 of 6.

Regarding `CCOC(=O)C(Cc1ccc(N(CCCl)CCCl)cc1)NC(=O)C(Cc1ccccc1)NC=O` (stereo not given), the T/C (dose: 12.5 mg/kg/injection, schedule: Q01DX009 (ip), vehicle: saline with Tween-80) is 145 % of control. Besides, the survivor count (dose: 400.0 mg/kg/injection, schedule: Q04DX003 (ip), vehicle: saline with Tween-80) is 4 of 6.

`COc1cccc2c1C(=O)c1c(O)c3c(c(O)c1C2=O)CC(O)(/C(C)=N/NC(=O)CC(=O)N/N=C(\C)C1(O)Cc2c(O)c4c(c(O)c2C(OC2CC(N)C(O)C(C)O2)C1)C(=O)c1c(OC)cccc1C4=O)CC3OC1CC(N)C(O)C(C)O1` (stereo not given): the T/C reads like this: under setting [3], 125 % of control; under setting [4], 132 % of control. The survivor count by setting is: under setting [2], 0 of 6; (dose: 25.0 mg/kg/injection, schedule: Q04DX003 (ip), vehicle: water) 0 of 6; (dose: 50.0 mg/kg/injection, schedule: Q04DX003 (ip), vehicle: water) 0 of 6.

For the molecule `CCOC(=O)C(=O)C1Cc2c(C)cc3cnc(OCC)cc3c2C1=O` (stereo not given), the survivor count (dose: 50.0 mg/kg/injection, schedule: Q01DX009 (ip), vehicle: distilled water + Tween-80) was 6 of 6.

For `c1ccc2[s+]csc2c1`, the survivor count (dose: 200.0 mg/kg/injection, schedule: Q01DX009 (ip), vehicle: distilled water + Tween-80) is listed as 0 of 6.

For `COC(=O)CC1(O)C(=O)OCc2c1cc1n(c2=O)Cc2c-1nc1ccccc1c2OC` (stereo not given), the T/C (dose: 50.0 mg/kg/injection, schedule: Q01DX009 (ip), vehicle: saline) was 127 % of control. The survivor count is reported as 6 of 6 (dose: 50.0 mg/kg/injection, schedule: Q01DX009 (ip), vehicle: suspension in saline) and 6 of 6 (dose: 200.0 mg/kg/injection, schedule: Q01DX009 (ip), vehicle: suspension in saline).

Regarding `CC(=O)c1c(O)c(C)c(C)c2c1OC(=O)C2C` (stereo not given), the survivor count is on record as 3 of 6 (dose: 25.0 mg/kg/injection, schedule: Q01DX009 (ip), vehicle: saline with Tween-80); 0 of 6 under setting [5]; 0 of 6 under setting [6].

`Oc1cccc(N2CCN(c3cccc(O)c3)CC2)c1`: the survivor count (dose: 240.0 mg/kg/injection, schedule: Q01DX005 (ip), vehicle: Klucel (hydroxypropylcellulose) (HPC)) is 6 of 6.

Take `COC1CC(C)C(OC)c2cc(O)cc(c2O)NC(=O)/C(C)=C/C=C\C(C)C(OC(N)=O)/C(C)=C\C(C)C1OC` (stereo not given): the T/C was 128 % of control (dose: 1.25 mg/kg/injection, schedule: Q01DX009 (ip), vehicle: saline + alcohol); 126 % of control (dose: 2.5 mg/kg/injection, schedule: Q01DX009 (ip), vehicle: saline + Tween-80 + alcohol); 142 % of control (dose: 2.5 mg/kg/injection, schedule: Q01DX009 (ip), vehicle: saline + alcohol); 141 % of control (dose: 5.0 mg/kg/injection, schedule: Q01DX009 (ip), vehicle: saline + Tween-80 + alcohol); 134, 135, 137 % of control (dose: 5.0 mg/kg/injection, schedule: Q01DX009 (ip), vehicle: saline + alcohol); 144 and 145 % of control under setting [7]. Besides, the survivor count is listed as 6 of 6 (dose: 10.0 mg/kg/injection, schedule: Q01DX009 (ip), vehicle: saline + Tween-80 + alcohol); 4 of 6 under setting [7]; 5 of 6 (dose: 10.0 mg/kg/injection, schedule: Q01DX009 (sc), vehicle: saline + Tween-80 + alcohol); 1 of 6 (dose: 20.0 mg/kg/injection, schedule: Q01DX009 (ip), vehicle: saline + Tween-80 + alcohol); 0 of 6 (dose: 20.0 mg/kg/injection, schedule: Q01DX009 (ip), vehicle: saline + alcohol); 0 of 6 (dose: 20.0 mg/kg/injection, schedule: Q01DX009 (sc), vehicle: saline + Tween-80 + alcohol). Besides, the survivor count by setting is: (dose: 30.0 mg/kg/injection, schedule: Q01DX009 (ip), vehicle: saline + Tween-80 + alcohol) 0 of 6; (dose: 40.0 mg/kg/injection, schedule: Q01DX009 (ip), vehicle: saline + alcohol) 0 of 6; (dose: 40.0 mg/kg/injection, schedule: Q01DX009 (sc), vehicle: saline + Tween-80 + alcohol) 1 of 6; (dose: 60.0 mg/kg/injection, schedule: Q01DX009 (sc), vehicle: saline + Tween-80 + alcohol) 1 of 6.

Consider `CCC/C(=N\NC(=S)N(C)C)c1ccccn1`, for which the survivor count under setting [8] is reported as 3 of 6 and the survivor count under setting [1] is 0 of 6.

In the case of `CC(C)(C)SSCCN`, the survivor count under setting [1] is 0 of 5.

Regarding `O=C1CCC2CCCCC2N1` (stereo not given), the survivor count (dose: 200.0 mg/kg/injection, schedule: Q01DX009 (ip), vehicle: Klucel (hydroxypropylcellulose) (HPC)) is listed as 2 of 6.

`C/C(=C\C(=O)c1ccccc1)Nc1ccccc1Cl`: the survivor count (dose: 100.0 mg/kg/injection, schedule: Q01DX009 (ip), vehicle: saline) was 6 of 6.

Turning to `Cc1cc(NCCCNCCCNc2cc(C)nc3cc([N+](=O)[O-])ccc23)c2ccc([N+](=O)[O-])cc2n1`, the T/C was 133 % of control (dose: 3.13 mg/kg/injection, schedule: Q01DX009 (ip), vehicle: other); 133 and 134 % of control (dose: 6.25 mg/kg/injection, schedule: Q01DX009 (ip), vehicle: other); 135 % of control (dose: 12.5 mg/kg/injection, schedule: Q01DX009 (ip), vehicle: other). In addition, the survivor count is, setting by setting: (dose: 25.0 mg/kg/injection, schedule: Q01DX009 (ip), vehicle: other) 2 of 6; (dose: 50.0 mg/kg/injection, schedule: Q01DX009 (ip), vehicle: other) 0 of 6 and 1 of 6; (dose: 100.0 mg/kg/injection, schedule: Q01DX009 (ip), vehicle: other) 0 of 6; (dose: 200.0 mg/kg/injection, schedule: Q01DX009 (ip), vehicle: other) 0 of 6.

Turning to `CCOC(=O)N1C(=O)C2C3CCC(C2C1=O)C1C2C(=O)N(C(=O)OCC)C(=O)C2C31` (stereo not given), the T/C under setting [5] was 127 % of control and the T/C under setting [6] is 142 % of control. For the same molecule, the survivor count (dose: 200.0 mg/kg/injection, schedule: Q01DX009 (ip), vehicle: saline with Tween-80) is 5 of 6.

For `[N-]=[N+]=C1C(=O)NC(=O)N2C3CC(O)C(COC12)O3` (stereo not given), the T/C is 138 % of control (dose: 100.0 mg/kg/injection, schedule: Q01DX009 (ip), vehicle: saline sonified); 147 % of control (dose: 200.0 mg/kg/injection, schedule: Q01DX009 (ip), vehicle: saline sonified); 128 % of control (dose: 400.0 mg/kg/injection, schedule: Q01DX009 (ip), vehicle: saline sonified).

Take `O=S(=O)(CC(O)C(Cl)(Cl)Cl)NNc1ccccc1` (stereo not given): the survivor count (dose: 200.0 mg/kg/injection, schedule: Q01DX009 (ip), vehicle: saline) is 0 of 6.

Regarding `CCC(CC)(C(=O)Nc1ccc2nc(C)cc(N)c2c1)C(=O)Nc1ccc2nc(C)cc(N)c2c1`, under setting [8], the survivor count is recorded as 5 of 5.

For `COc1cccc2c1C(=O)c1c(O)c3c(c(O)c1C2=O)CC(O)(/C(C)=N/NC(=O)c1cc(C(F)(F)F)cc(C(F)(F)F)c1)CC3OC1CC(N)C(O)C(C)O1` (stereo not given), the T/C under setting [3] was 149 % of control and the T/C under setting [4] is 140 % of control. Besides, under setting [2], the survivor count is 6 of 6 (2×).

These data come from PubChem BioAssay AID330 (DTP/NCI, 2004).
